Test results reported in publication PMC12040169 (PLOS Biology, 2025).
The list shows a part of the results.

Test system: T1, CTL2-GFP (C. trachomatis L2/434/Bu, GFP-expressing)
T1 construct: L2/434/Bu, GFP-expressing
Design: species or system HeLa; Intracellular C. trachomatis growth in HeLa cells, bulk GFP fluorescence relative to DMSO
Conditions: bulk GFP, single well; 28.5 h, 10 µM; inhibitor

SMILES	% of control remaining
Cc1nn(-c2ccccc2)c(O)c1/C=N/c1ccccc1Sc1c(C)n[nH]c1C [CBK262048]	105.055%
O=C(O)C1(NCc2ccc(F)cc2)CCCCC1 [CBK287270]	152.592%
O=S(=O)(Nc1ncc(Br)c2cccnc12)c1cccc(C(F)(F)F)c1 [CBK073884]	100.822%
COc1ccc(C2SCCCS2)cc1C(C)(C)C [CBK018886]	100.871%
Cc1cc(C)n(-c2nc3cc(Cl)ccc3nc2NCc2ccc3c(c2)OCO3)n1 [CBK268482]	95.9751%
Cc1[nH]c2cccc(C(=O)N3CCCCC3CCNC(=O)c3ccccc3)c2c1C (stereo not shown) [CBK285976]	60.4085%
Cn1cncc1C(=O)NC1Cc2ccccc2C1 [CBK200362]	137.662%
O=C1S/C(=C\c2ccc(O)c([N+](=O)[O-])c2)C(=O)N1Cc1ccc(F)cc1 [CBK102928]	100%
Cc1occc1SCC(=O)Nc1ccc(CN2CCOCC2)cc1 [CBK306453]	124.695%
O=C(c1ccccc1)c1ccc(OCCO)cc1 [CBK000725]	109.326%
COCCN(Cc1nccs1)C(=O)C1CCc2nn(C)c(=O)n2C1 (stereo not shown) [CBK306506]	121.224%
CCCN1CCC(CNC(=O)c2cnn(-c3ccc(F)cc3)c2)CC1 [CBK282466]	96.5069%
Nc1ncc(-c2ccoc2)nc1Nc1ccc2[nH]ccc2c1 [CBK063868]	111.301%
Cc1noc(C)c1NC(=O)c1cn(C)c2ccccc12 [CBK200312]	108.271%
CC1CCCN(Cc2nc3c([nH]2)c(=O)n(C)c(=O)n3C)C1 (stereo not shown) [CBK306054]	133.185%
CCNC(=O)N1CC2(CCN(Cc3ccc4ccccc4c3)CC2)c2ccccc21 [CBK126696]	107.309%
CS(=O)(=O)c1ccc(-c2cccc(COC3CCN(C(=O)Cc4cccc5ccccc45)CC3)c2)cc1 [CBK149510]	85.5928%
C/C(=N\NC(=O)CNC(=O)c1ccc(Br)cc1)c1ccccc1 [CBK262020]	117.749%
COc1cccc2sc(Nc3nc4ccc(S(C)(=O)=O)cc4s3)nc12 [CBK287472]	132.314%
Cc1cc(Cn2ccc(C(F)(F)F)n2)c(C)c(-c2c(C#N)c(N)nc3c2CCCCC3)c1 [CBK267928]	96.5737%
N#Cc1cccc(CN2CCCC3(CCN(C(=O)c4cc(F)c(F)cc4F)C3)C2)c1 (stereo not shown) [CBK131993]	103.51%
O=C(O)c1ccc(-c2ccc(/C=C/c3nc(O)c([N+](=O)[O-])c(=O)[nH]3)o2)cc1Cl [CBK267354]	161.815%
C=CCn1c(Cc2csc(NC(=O)c3ccc([N+](=O)[O-])c(C)c3)n2)n[nH]c1=S [CBK295323]	158.536%
Nc1ncc(-c2cccc(/C=C/C(=O)O)c2)nc1NCCCO [CBK063887]	116.386%
CS(=O)(=O)N1CC[C@H](c2nc3cc(Cl)ccc3o2)C1 [CBK289370]	110.177%
CN(C)CCCNC(=O)c1cc(-c2ccc(Cl)cc2)[nH]n1 [CBK116564T]	117.365%
O=c1oc2ccc(Cl)cc2n1C1CCN(Cc2ccco2)CC1 [CBK284342]	78.5925%

A stretch from the list above:
SMILES	% of control remaining
CCCN1CCC(CNC(=O)c2cnn(-c3ccc(F)cc3)c2)CC1 [CBK282466]	96.5069%
Nc1ncc(-c2ccoc2)nc1Nc1ccc2[nH]ccc2c1 [CBK063868]	111.301%
Cc1noc(C)c1NC(=O)c1cn(C)c2ccccc12 [CBK200312]	108.271%

Pulled one by one from the entries so far:
SMILES	% of control remaining
Cn1cncc1C(=O)NC1Cc2ccccc2C1 [CBK200362]	137.662%
Cc1cc(Cn2ccc(C(F)(F)F)n2)c(C)c(-c2c(C#N)c(N)nc3c2CCCCC3)c1 [CBK267928]	96.5737%
CN(C)CCCNC(=O)c1cc(-c2ccc(Cl)cc2)[nH]n1 [CBK116564T]	117.365%

Additional structures follow:

SMILES	% of control remaining
COc1ccccc1N1CCN(c2nccc3sc(S(=O)(=O)NCc4ccc(C(F)(F)F)c(F)c4)cc23)CC1 [CBK038270C]	106.334%
O=C(NCCN1CCOCC1)C1CCN(Cc2ccccc2O)CC1 [CBK264324]	140.808%
[O-][n+]1c2c([n+]([O-])c3c1CCCC3)CCCCC2 [CBK263586]	100%
CCOC(=O)Cc1csc(SCC(=O)N2CCc3ccccc32)n1 [CBK306190]	135.774%
O=C(NCc1ccncc1)c1nccnc1-c1ccc(COc2ccccc2)cc1 [CBK050836]	124.549%
Cc1ccc(S(=O)(=O)Oc2cccc(C(c3c(C)n[nH]c3O)c3c(C)n[nH]c3O)c2)cc1 [CBK265016]	116.674%
O=C(Nc1ncnc2c1nc(OCc1ccccc1)n2C1CC(O)C(CO)O1)c1ccccc1 (stereo not shown) [CBK201220]	135.905%
Cc1ccc2nsnc2c1NC(=O)COc1ccc([N+](=O)[O-])cc1 [CBK033705]	125.33%
O=C(CSc1ncnc2ccccc12)N(Cc1ccccc1F)C1CC1 [CBK295610]	122.72%
O=C(Cn1ccc2ccnc(-c3cccs3)c21)N1CCC(O)CC1 [CBK284736]	129.04%
Cc1cc(C)cc(NC(=O)Cn2cnc3c(sc4ccccc43)c2=O)c1 [CBK287807]	122.392%
COC(=O)c1cn(-c2ccc(Cl)cc2)c(=O)c2ccccc12 [CBK116489]	90.6204%
O=C(CNCc1ccc2c(c1)OCO2)NCc1ccc2c(c1)OCO2 [CBK074763]	145.674%
COc1ccc(-c2cc(C(=O)Nc3cccc(C(=O)O)c3)cnc2-c2ccc(F)cc2)cn1 [CBK038064]	114.085%
O=S(=O)(NCC1CCCO1)c1ccc2oc3ccc(S(=O)(=O)NCC4CCCO4)cc3c2c1 (stereo not shown) [CBK265914]	102.311%
c1cncc(CNc2cccc(OCCOc3nccnc3N3CCNCC3)c2)c1 [CBK200008]	106.843%
N#Cc1c(NC(=O)CSc2ncnc3c2cnn3-c2ccccc2)sc2c1CCCC2 [CBK269478]	133.234%
O=C(Cn1c(C2CCOCC2)cc2cccnc21)N1CCCCCC1 [CBK284674]	54.5925%
Cc1cccc(C(=O)N2CCCCC2CN(C)C)c1 (stereo not shown) [CBK074171]	138.184%
CCc1cc(CNC(=O)C(c2ccccc2)N2CCC(C)CC2)on1 (stereo not shown) [CBK281592]	130.415%
Cn1c(-c2ccccc2)c(C(=O)C(N)=O)c2ccccc21 [CBK288465]	110.42%
Cc1cc(CNS(=O)(=O)c2ccc(-c3ccon3)s2)no1 [CBK062276]	90.1748%
Nc1cc2cccnc2nc1-c1cccnc1 [CBK067602]	162.351%
CN1CCN(C(=O)c2cccc(NS(=O)(=O)c3cc(Cl)sc3Cl)c2)CC1 [CBK038966]	140.013%
O=S(=O)(Nc1nnn[nH]1)c1ccc(Cl)c(Cl)c1 [CBK062387]	104.974%
Cn1c(C(=O)N2CCc3ccccc32)cc2ccccc21 [CBK200406]	115.29%
Nc1ncc(-c2cccs2)nc1-c1ccc(F)c(Cl)c1 [CBK063990]	78.2464%

SMILES	% of control remaining
COc1cccc(CN2CCC3(C2)c2[nH]c4c(C)cccc4c2CCN3C(C)=O)c1 (stereo not shown) [CBK039662]	91.2422%
NC(=O)c1ccccc1NC(=O)C1CCC(C(=O)Nc2ccccc2C(N)=O)CC1 (stereo not shown) [CBK268716]	117.004%
N=c1n(CC(=O)c2ccc(Br)s2)c2ccccc2n1Cc1ccccc1 [CBK262482B]	96.8738%
COc1ccc(NS(=O)(=O)c2cc(C(=O)O)sc2Br)cn1 [CBK297943]	116.135%
O=C(O)CNC(=O)CNC(=O)Cn1c(-c2ccccc2)cc2ccccc21 [CBK286550]	121.663%
COc1ccc2cc(C)c3n[nH]c(=O)n3c2c1 [CBK283765]	130.896%
Nc1nc(OCCOc2ccccc2)cnc1-c1ccc2c(c1)OCO2 [CBK145097]	100%
CC(=O)N(C)Cc1cccc(Nc2ncnc3c2cnn3CCO)c1 [CBK305979]	107.306%
CCc1nc2ccc(C(=O)NCCCN3CCCC3=O)cn2c1N(C)C(=O)COc1ccccc1 [CBK145855]	181.817%
O=C(NCCN1CCCC1)c1ccc2nc[nH]c2c1 [CBK153311]	133.838%
COc1ccc(C(=O)Nc2ccccc2)cc1NC(=O)c1cc(C(F)(F)F)cc(C(F)(F)F)c1 [CBK263465]	131.689%
CCc1nnc(NC(=O)c2cc(OC)c(OC)c(OC)c2)s1 [CBK058342]	121.414%
COc1cccc(-c2ccc(C(=O)NCCNC(C)=O)c(N3CCOCC3)n2)c1 [CBK076465]	114.813%
Cc1ncsc1CCOc1nccnc1N1CCCC1 [CBK115752]	93.7467%
CC(NC(=O)/C(=C\c1ccc(Cl)cc1)NC(=O)c1ccco1)C(=O)O (stereo not shown) [CBK263617]	116.949%
O=C(CSc1ncccn1)Nc1sc2c(c1C(=O)Nc1ccccc1)CCCC2 [CBK265939]	100%
O=C1CC(C(=O)N2CCN(C(=O)c3ccco3)CC2)c2ccccc21 (stereo not shown) [CBK144464]	103.459%
Nc1nnc(CSCc2ccc(Cl)cc2Cl)s1 [CBK263471]	103.776%
Cc1ccn2c(C(=O)N(C)CCc3noc(C(C)C)n3)nnc2n1 [CBK306670]	139.564%
Cn1c(=O)n(CC(=O)NC23CC4CC(CC(C4)C2)C3)c2cccnc21 [CBK283795]	123.356%
Cc1cc(C)c(NC(=O)CSCC(=O)Nc2ccc3ccccc3c2)c(C)c1 [CBK264856]	119.927%
CC(=O)Nc1ccc(S(=O)(=O)NC2(C(F)(F)F)NC(=O)N(C3CCCC3)C2=O)cc1 (stereo not shown) [CBK268100]	79.1297%
CCOC(=O)c1cc(C(N)=S)c(C)nc1C(F)(F)F [CBK028734]	142.817%
Cc1nc(NCCCn2ccnc2)c2ccccc2n1 [CBK051987]	100%
CCC(=O)c1cc(F)c(N2CCN(C(=O)c3cccs3)CC2)cc1C [CBK033892]	125.618%
